{"source": "PubChem BioAssay AID590", "about": "(National Center for Advancing Translational Sciences (NCATS), 2007)", "note": "Hit rate of the full screen: of about 59,000 compounds, about 6,500 (11%) were called active. Inconclusive means that the source gave no clear call. Such entries were picked first, then a sample of the others. No stated cut-off is given here; in the data, active means max dye-equivalent concentration above about 10 nM; inconclusive means mostly about 1.1 nM to 9.6 nM; inactive means weaker than that.", "data": [{"experiment": "qHTS Assay for Spectroscopic Profiling in A350 Spectral Region", "conditions": "Compound autofluorescence, 340/450 nm, Alexa 350 dye-equivalents; hits give high values", "values": [{"smiles": "COc1ccccc1NC(=O)c1cc(C(=O)O)ccc1C(=O)O", "max dye-equivalent concentration": "inconclusive: 1.1 nM"}, {"smiles": "CCC(=O)N1c2ccc(S(=O)(=O)CCC(=O)N3CCn4c3nc3ccccc34)cc2CC1C", "note": "(stereo not given)", "max dye-equivalent concentration": "inactive"}, {"smiles": "CC1(C)Cc2nc3sc4c(=O)[nH]cnc4c3cc2CS1", "max dye-equivalent concentration": "inconclusive: 3 nM"}, {"smiles": "CCOC(=O)c1cnn(CCOC(=O)C2CC2)c1NC(=O)C1CC1", "max dye-equivalent concentration": "inconclusive: 3.4 nM"}, {"smiles": "c1ccc(-c2cc(N3CCOCC3)nc(-c3ccccc3)n2)cc1", "max dye-equivalent concentration": "inconclusive: 2.5 nM"}, {"smiles": "COn1c(C)c(C(C)=O)c2c3nonc3ccc21", "max dye-equivalent concentration": "active: 54 nM"}, {"smiles": "CCC[C@H]1C[C@H](C(=O)N[C@H]([C@@H]2O[C@H](SC)[C@@H](O)[C@H](O)[C@@H]2O)[C@H](C)O)N(C)C1", "max dye-equivalent concentration": "inactive"}, {"smiles": "Cc1ccc(C)c(SCC(=O)OCC(=O)c2ccco2)c1", "max dye-equivalent concentration": "inactive"}, {"smiles": "COc1ccc(OC)c2[nH]c(=O)c(CCNC(=O)CC(C)C)cc12", "max dye-equivalent concentration": "inconclusive: 4.5 nM"}, {"smiles": "CCOC(=O)c1c(C)oc2ccc(O)c(CN(C)C)c12", "max dye-equivalent concentration": "inactive"}, {"smiles": "Cc1cc(C)n(-c2nc3nonc3nc2-n2nc(C)cc2C)n1", "max dye-equivalent concentration": "inconclusive: 6.3 nM"}, {"smiles": "COc1ccc(-c2c(C#N)c(SCc3c(C)noc3C)nc3c2C(=O)CC(C)(C)C3)cc1", "max dye-equivalent concentration": "inactive"}, {"smiles": "C=CCn1c(COc2cccc3ccc(C)nc23)nnc1SCC(=O)OC", "max dye-equivalent concentration": "inconclusive: 1.7 nM"}, {"smiles": "Cc1nc2nc(-c3cccs3)cn2nc1C", "max dye-equivalent concentration": "active: 770 nM"}, {"smiles": "CCOC(=O)CCn1nc(-c2ccc(Cl)cc2)cc1N", "max dye-equivalent concentration": "inconclusive: 1.4 nM"}, {"smiles": "O=C(O)c1cc2cc(OCc3ccccc3)ccc2[nH]1", "max dye-equivalent concentration": "inconclusive: 1.7 nM"}, {"smiles": "CC(C)OC(=O)C1C2C=CC3(CN(Cc4cccs4)C(=O)C13)O2", "note": "(stereo not given)", "max dye-equivalent concentration": "inactive"}, {"smiles": "C/C(=N/S(=O)(=O)c1ccc(Cl)c(Cl)c1)OCC(C)(C)C", "max dye-equivalent concentration": "inconclusive: 4.4 nM"}, {"smiles": "Cc1c(C)c2cc(Cl)c(O)c(CN3CCN(C)CC3)c2oc1=O", "max dye-equivalent concentration": "active: 13000 nM"}, {"smiles": "Clc1c(CSc2nc3ccccc3o2)nc2ccccn12", "max dye-equivalent concentration": "inactive"}, {"smiles": "Cc1csc(SCC(=O)NC(=O)NCc2ccccc2)n1", "max dye-equivalent concentration": "inactive"}, {"smiles": "CN1CCN(c2ncc3ncc(=O)n(C4CC4)c3n2)CC1", "max dye-equivalent concentration": "inconclusive: 3.7 nM"}, {"smiles": "CSc1nc2ccc(NS(=O)(=O)c3ccc4c(c3)OCCO4)cc2s1", "max dye-equivalent concentration": "inconclusive: 1.4 nM"}, {"smiles": "CCOC(=O)N1CCN(c2nc3c(c(=O)[nH]c(=O)n3C)n2Cc2ccccc2Cl)CC1", "max dye-equivalent concentration": "inconclusive: 1.7 nM"}, {"smiles": "Cc1cc(NC(=O)CSc2nnc(-c3ccncc3)n2N)ccc1Br", "max dye-equivalent concentration": "inconclusive: 1.4 nM"}, {"smiles": "CN(C)c1ccc(-c2cc(N(C)Cc3ccco3)ncn2)cc1", "max dye-equivalent concentration": "active: 200 nM"}, {"smiles": "Cn1c(C(C#N)/C(=N\\S(=O)(=O)c2cccs2)c2ccccc2)nc2ccccc21", "note": "(stereo not given)", "max dye-equivalent concentration": "active: 220 nM"}, {"smiles": "COc1ccc(NC(=O)c2c(C)cc(=O)oc2C)c(OC)c1", "max dye-equivalent concentration": "active: 130 nM"}, {"smiles": "CCC1(COC(=O)Nc2cccc(Cl)c2)COC1", "max dye-equivalent concentration": "inconclusive: 1.4 nM"}, {"smiles": "CSc1nnc(C)c(=O)[nH]1", "max dye-equivalent concentration": "inactive"}, {"smiles": "CCN1CCCC1CNC(=O)c1ccc(N2CCCC2=O)cc1", "note": "(stereo not given)", "max dye-equivalent concentration": "active: 10 nM"}, {"smiles": "CCOC(=O)N1CCN(C(=O)c2cn(CC)c3cc(N4CCN(C)CC4)c(F)cc3c2=O)CC1", "max dye-equivalent concentration": "inconclusive: 6.6 nM"}, {"smiles": "CCOc1ccc(-n2nc(C(=O)N3CCOCC3)c3ccccc3c2=O)cc1", "max dye-equivalent concentration": "active: 25 nM"}, {"smiles": "CCCCOC(=O)C1C2C=C[C@]3(CN(C(C)c4ccc(OC)cc4)C(=O)[C@H]13)O2", "note": "(stereo not given in full)", "max dye-equivalent concentration": "inconclusive: 5.8 nM"}, {"smiles": "O=C(O)CCCC(=O)N1CCN(C(c2ccccc2)c2ccccc2)CC1", "max dye-equivalent concentration": "inactive"}, {"smiles": "O=C(NCCN1CCOCC1)c1cc(-c2ccccc2)on1", "max dye-equivalent concentration": "inactive"}, {"smiles": "CCOC(=O)c1c(Nc2nc(C)c(C(=O)NC)s2)sc(C)c1C", "max dye-equivalent concentration": "active: 47 nM"}, {"smiles": "CC(=O)c1ccc(OCCCC(=O)NCC(c2ccco2)N(C)C)cc1", "note": "(stereo not given)", "max dye-equivalent concentration": "inconclusive: 2.6 nM"}, {"smiles": "N#CCSc1nnc(Cc2ccc3c(c2)OCO3)o1", "max dye-equivalent concentration": "inactive"}, {"smiles": "COC(=O)N1CCN(S(=O)(=O)c2ccc(F)cc2)CC1", "max dye-equivalent concentration": "inconclusive: 1.3 nM"}, {"smiles": "CC1CCC/C(=C\\Nc2ccccc2C(=O)O)C1=O", "note": "(stereo not given)", "max dye-equivalent concentration": "active: 19 nM"}, {"smiles": "O=C(Nc1ccc2c(c1)oc1ccccc12)c1cccnc1", "max dye-equivalent concentration": "inactive"}, {"smiles": "CC(=O)Oc1ccc(C(c2ccc(OC(C)=O)cc2)c2ccccn2)cc1", "max dye-equivalent concentration": "inactive"}, {"smiles": "O=c1c(-c2cccs2)nc2cncnc2n1C1CC1", "max dye-equivalent concentration": "active: 80 nM"}, {"smiles": "COc1ccc2nc(NC(=O)C(NS(=O)(=O)c3cccs3)C(C)C)sc2c1", "note": "(stereo not given)", "max dye-equivalent concentration": "inactive"}, {"smiles": "C/C=C/c1ccc(OCCCN2C(=O)NC(C)(C)C2=O)c(OC)c1", "max dye-equivalent concentration": "inconclusive: 1.1 nM"}, {"smiles": "O=C(Cc1cccs1)Nc1ccc(S(=O)(=O)N2CCCCC2)cc1", "max dye-equivalent concentration": "inconclusive: 2.8 nM"}, {"smiles": "C[N+](C)(C)[C@@H](C1=CCCC1=O)c1ccccc1", "max dye-equivalent concentration": "inactive"}, {"smiles": "COc1cc(C2=NOC(C(=O)N3CCN(c4ccc(F)cc4)CC3)C2)cc(OC)c1OC", "note": "(stereo not given)", "max dye-equivalent concentration": "inactive"}, {"smiles": "CSc1ccc(S(=O)(=O)Nc2cccc(F)c2)cc1", "max dye-equivalent concentration": "inactive"}, {"smiles": "Cc1cc(C(=O)CN2C(=O)NC(c3ccccc3)(c3ccccc3)C2=O)c(C)n1Cc1ccco1", "max dye-equivalent concentration": "inactive"}, {"smiles": "O=C1NCCN1Cc1cccc(Cl)c1", "max dye-equivalent concentration": "inconclusive: 2.6 nM"}, {"smiles": "COc1cccc(NC(=O)Cc2nnc(SCC(=O)c3ccccc3)n2C)c1", "max dye-equivalent concentration": "inconclusive: 1.9 nM"}, {"smiles": "Cc1cccc(N2CC3=C(C2=O)C(c2ccccc2)NC(=O)N3C)c1", "note": "(stereo not given)", "max dye-equivalent concentration": "inconclusive: 5.6 nM"}, {"smiles": "CC1(CCC(=O)OC2CCCCC2)OCCO1", "max dye-equivalent concentration": "inactive"}, {"smiles": "COc1cc(-c2nn3c(-c4ccco4)nnc3s2)cc(OC)c1OC", "max dye-equivalent concentration": "inconclusive: 2.7 nM"}, {"smiles": "CCOc1ccc(CCNC(=O)CCN2C(=O)COc3ccccc32)cc1OCC", "max dye-equivalent concentration": "inconclusive: 6.3 nM"}, {"smiles": "c1cc(-c2nc3cc(Oc4ccc5oc(-c6ccncc6)nc5c4)ccc3o2)ccn1", "max dye-equivalent concentration": "inconclusive: 4.5 nM"}, {"smiles": "O=C(CSc1nnc(-c2cccnc2)n1-c1ccccc1)Nc1ccccn1", "max dye-equivalent concentration": "inconclusive: 1.8 nM"}, {"smiles": "CCOC(=O)N1CCN(C(=O)CSCC(=O)Nc2nc(-c3ccc(Cl)s3)cs2)CC1", "max dye-equivalent concentration": "inconclusive: 2.4 nM"}]}]}
